PubChem BioAssay AID504706 (National Center for Advancing Translational Sciences (NCATS), 2011)
Hit rate of the full screen: of about 320,000 compounds, about 200 (0.062%) were called active. Another 6% or so got no clear call; they are omitted. Calls follow the shape of the dose curve; as a rule, active = well fitted activation curve with a large enough effect; inconclusive = small, poorly fitted or top-dose-only effect; inactive = no such curve, though single readings can be large or run the other way. The list shows a part of the results, in another mix than the full data. Where no call is shown, the source filed none.

Test: qHTS assay for re-activators of p53 using a Luc reporter; also: nearly all actives have a fitted effect of over 45% in size; as to activity change, positive = activation: % of control where 0% means no effect
Conditions: H1299 p53-A138V BP100-luciferase reporter, luminescence, 24 h; activity change, positive = activation: at 92.2 µM (top of the series)
How it was run: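 p53-null H1299 cells stably carrying temperature-sensitive p53-A138V and a BP100-luciferase reporter were pinned with compounds (4-point, 1:5 series) and held 24 hrs at 37 deg C. Luminescence was read 10 min after detection reagent.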
Potency is read from the fitted curve at half-maximal effect.

Row | SMILES | activity change, positive = activation | Potency
1 | CCC(=O)OCCNc1cc(Sc2nccn2C)c2nonc2c1[N+](=O)[O-] | inactive: -39.6% | –
2 | Cc1ccc(OCc2cc(C(=O)N3CC4C[C@@H]5CC3C[C@H](C4)C5)no2)cc1C | – | active: 28.2 µM
3 | COc1cc(/C=C(\C#N)C(=O)Nc2cccc(C(=O)O)c2)ccc1OCc1ccc(Cl)cc1 | 38.9% | –
4 | COc1ccc(N=CC2=C(O)c3ccccc3C2=O)cc1 | 27.2% | –
5 | Cc1csc(NC(=O)c2ccc(C)c([N+](=O)[O-])c2)n1 | 43.1% | –
6 | Cc1ccc(C2=NN3C(C2)c2ccccc2OC32C(=O)Nc3ccccc32)cc1 (centres undefined) | 57.2% | –
7 | O=C(c1cccs1)N1CCc2ccccc21 | 34.5% | –
8 | CCN(Cc1ccccc1)C(=O)CN1C(=S)NC(C)(C)CC1C (centres undefined) | 36% | –
9 | O=C(O)c1cc(N/N=C/c2ccc3c(c2)OCCO3)ccc1Cl | 42.2% | –
10 | Cc1ccc(-c2cc(C(=O)N3CCCC3)no2)cc1 | -22.1% | –
11 | COCCn1c(C)cc(C(=O)CSc2nc3ccccc3s2)c1C | 63.5% | –
12 | O=C(O)c1cccc(-c2nnn(Cc3ccccc3Cl)n2)c1 | 25.3% | –
13 | c1ccc(-c2oc3ncnc(NCCCn4ccnc4)c3c2-c2ccccc2)cc1 | inactive: -33% | –
14 | COc1ccccc1NC(CC(=O)c1ccccc1)C(=O)OCC(=O)c1ccc(C)c(C)c1 (centres undefined) | 28.2% | –
15 | COc1ccc(-n2nnnc2-c2nc3ccccc3s2)cc1 | 60.9% | –
16 | O=C(CSc1cccc[n+]1[O-])Nc1cc(S(=O)(=O)N2CCOCC2)ccc1N1CCOCC1 | 55.5% | –
17 | CN(Cc1ccccc1)C(=O)CNC(=O)Cn1cnc2ccccc2c1=O | -23.7% | –
18 | O=[N+]([O-])c1ccc(/C=N/Nc2ccc3ccccc3c2)o1 | 42.3% | –
19 | Cc1nnc(SCC(=O)N2CCCCC2)s1 | 46.3% | –
20 | COc1cc(S(=O)(=O)N2CCN=C2c2ccccc2)ccc1F | inactive: -14.3% | –
21 | Cc1ccc(S(=O)(=O)N2CCOCC2)cc1C(=O)OCC(=O)NC1CCS(=O)(=O)C1 (centres undefined) | 23.1% | –
22 | Cc1ccc2cc3c(N)c(C(=O)N4CCOCC4)sc3nc2c1 | 43.1% | –
23 | CCOc1ncccc1C(=O)OCC(=O)Nc1ccc(-c2nc3ccc(C)cc3s2)cc1 | 69.3% | –

Reformatted tab-delimited: part of the list above
Row	SMILES	activity change, positive = activation	Potency
18	O=[N+]([O-])c1ccc(/C=N/Nc2ccc3ccccc3c2)o1	42.3%	–
19	Cc1nnc(SCC(=O)N2CCCCC2)s1	46.3%	–
20	COc1cc(S(=O)(=O)N2CCN=C2c2ccccc2)ccc1F	inactive: -14.3%	–
21	Cc1ccc(S(=O)(=O)N2CCOCC2)cc1C(=O)OCC(=O)NC1CCS(=O)(=O)C1 (centres undefined)	23.1%	–

Going on with the list.

Row | SMILES | activity change, positive = activation | Potency
24 | COc1ccc(/C=C2/SC(=S)NC2=O)cc1OCc1ccccc1 | inactive: -46.6% | –
25 | COc1ccc(S(=O)(=O)N2CCCCC2)cc1NC(=O)[C@@H]1CCCN1C(=O)c1cccs1 | 29.7% | –
26 | Cc1cs/c(=N/C(=S)Nc2ccccc2)n1C | 77.3% | –
27 | Cc1cc(C)c2c(-n3cccc3)c(C(=O)O)sc2n1 | 43.9% | –
28 | COc1ccc(NC(=O)c2ccccc2)cc1 | 88.2% | –
29 | Cc1c(C)c2cccnc2c2ncccc12 | inactive: -33.1% | –
30 | Cc1ccc(-c2nnn(C(C)C(=O)N3c4ccccc4CCc4ccccc43)n2)cc1 (centres undefined) | 93.2% | –
31 | COCCCNc1oc(/C=C/c2ccccc2)nc1C#N | 38.4% | –
32 | NC(=O)c1ccccc1N/C=C/C(=O)c1ccccc1 | 41.9% | –
33 | CCOC(=O)c1cc(-c2ccccc2)sc1NC(=O)CC | 65.6% | –
34 | Cc1ccc(C(=O)Nc2ncc(C)s2)s1 | 32% | –
35 | O=C(Nc1ccc(-c2nc3cccnc3s2)cc1)C1CCCO1 (centres undefined) | 30.7% | –
36 | CCC(C)Nc1ccc(NC(C)CC)cc1 (centres undefined) | inactive: -35.6% | –
37 | O=C(/C=C/Nc1ccccc1)c1ccc(Cl)cc1Cl | 35.5% | –
38 | COc1ccc(-c2ccc3c(c2)S(=O)(=O)c2cccc(C(=O)O)c2C3=O)cc1OC | inactive: -11.7% | –
39 | O=C(Nc1ccc2nsnc2c1)c1ccc2c(c1)OCO2 | 45.2% | –
40 | COc1ccc(C(=O)C(CN2CCCC2)c2ccccc2)cc1 (centres undefined) | inactive: -29.3% | –
41 | Cc1cccc(-n2ncc3c(N(CCO)CCO)ncnc32)c1 | 55.8% | –
42 | Cc1cccc(N2CCN(S(=O)(=O)c3ccc4c(c3)CCC(=O)N4)CC2C)c1 (centres undefined) | 52% | –
43 | O=S(=O)(Nc1cc(Sc2cccc3cccnc23)c(O)c2ccccc12)c1ccc(F)cc1 | inactive: -38.4% | –
44 | CCCCC1(Cc2cccc([N+](=O)[O-])c2)C(=O)N(c2ccccc2)N(c2ccccc2)C1=O | inactive: 1.64% | –
45 | COCCCN(C(=O)c1ccco1)c1nc(-c2ccc(OC)cc2)cs1 | inactive: -66.8% | –
46 | CCCCc1ccc(NC(=O)C2CCCO2)cc1 (centres undefined) | 38.2% | –

Row | SMILES | activity change, positive = activation | Potency
47 | O=C(N/N=C/C1CC=CCC1)c1ccc(Cl)cc1O (centres undefined) | – | active: 31.6 µM
48 | COC(=O)c1c(C)n(-c2ccc(OC)cc2)c2ccc(O)cc12 | inactive: -34.1% | –
49 | CCOc1ccc(-c2nnc(SCC(=O)Nc3ccc4c(c3)c3ccccc3n4CC)n2N)cc1 | inactive: -46.1% | –
50 | C/C(=N/N=C/c1ccc(N(C)C)cc1)c1ccccc1 | 96.9% | –
51 | Cc1cc(C(=O)CN2C(=O)c3ccccc3S2(=O)=O)c(C)n1CC1CCCO1 (centres undefined) | inactive: -59.7% | –
52 | CC1CCc2sc(C(=O)NC3CCCCC3)cc2C1 (centres undefined) | 59.9% | –
53 | O=C(COC(=O)c1ccc(F)cc1)NC1CC1 | 42.3% | –
54 | O=C(CCCN1C(=O)/C(=C\c2cccc(Br)c2)SC1=S)Nc1cccnc1 | inactive: -2.05% | –
55 | O=C(Cn1ncc(Cl)c(Cl)c1=O)NCC1CCCCC1 | inactive: -34.2% | –
56 | O=C(O)c1cccc(N/N=C/c2ccc(OC(F)(F)F)cc2)c1 | 20% | –
57 | Cc1ccc(/C=C2\SC(=S)N(CCCC(=O)Nc3cccnc3)C2=O)cc1 | inactive: -31.1% | –
58 | CC(=O)Oc1ccc(C(=O)Nc2cc(C)on2)cc1 | 57% | –
59 | CN(C)c1ccc(-c2noc(-c3ccccc3O)n2)cc1 | – | active: 7.08 µM
60 | O=C(CCS(=O)(=O)c1ccccc1)Nc1ccc(-c2nc3ccccc3s2)cc1 | 159% | –
61 | O=C(Cn1ccc2ccccc2c1=O)NCCC(=O)NC1CCN(Cc2ccccc2)CC1 | 22.6% | –
62 | O=C(/C=C/Nc1ccccc1F)c1cccs1 | 76.6% | –
63 | Cc1ccc2c(c1)sc(-c1ccc(N(C)C)cc1)[n+]2C | 60% | –
64 | COc1ccc2nc(SCc3ccccc3)nc(C)c2c1 | 119% | –
65 | CC(C)c1ccc(OCc2cccc(C(=O)N/N=C/c3cccnc3)c2)cc1 | 86.8% | –
66 | O=C(NCCc1ccccc1)c1ccc2c(c1)OCCO2 | inactive: -61.7% | –
67 | NC(=O)c1ccccc1NC(=O)c1ccc2ccccc2c1 | 61.8% | –
68 | Cc1cc(=O)oc(C)c1C(=O)NCc1c(F)cc(F)cc1F | 53.7% | –
69 | CC(=O)Nc1cc(C(=O)OCC(=O)c2ccc(C)cc2)ccc1C | – | active: 28.2 µM

Row | SMILES | activity change, positive = activation | Potency
70 | CCS(=O)(=O)c1ncc(Cl)c(C(=O)Nc2ccc(S(=O)(=O)N3CCCC(C)C3)cc2)n1 (centres undefined) | inactive: -30.7% | –
71 | Cc1cc(C2=NNC(=NC3CC3)SC2)c(C)n1-c1ccccc1 | inactive: -26.5% | –
72 | CC(=O)Nc1ccc(C(=O)CCl)cc1 | inactive: -32.4% | –
73 | COc1cccc(N2CCN(c3ccc4nnc(CCC(=O)Nc5ccccn5)n4n3)CC2)c1 | 34.5% | –
74 | CCOC(=O)c1sc2nc(-c3ccccc3)ccc2c1N | 81.5% | –
75 | O=C1CN(c2nc(-c3ccccc3)c3cc(Cl)ccc3n2)c2ccccc2N1 | 35.6% | –
76 | O=[N+]([O-])c1ccc(NC(=S)NCc2ccc(F)cc2)cc1 | inactive: -30.6% | –
77 | Clc1cccc(Nc2ncnc3c2cnn3-c2ccccc2)c1 | inactive: -0.907% | –
78 | O=C(Nn1c(SCc2ccc([N+](=O)[O-])cc2)nc2ccccc2c1=O)c1ccc(F)cc1 | 81% | –
79 | O=C(Cn1cc(SCc2cccc(Cl)c2)c2ccccc21)N1CCOCC1 | – | active: 28.2 µM
80 | Cc1ccc(-c2nc3n(n2)Cc2ccccc2-3)cc1 | 40.7% | –
81 | Cc1nn(-c2ccccc2)c(Cl)c1/C=N/Nc1nc2ccccc2[nH]1 | 66.5% | –
82 | COC(=O)c1cn[nH]c1NC(=S)Nc1ccc(C)cc1Cl | 133% | –
83 | COc1ccc2nc(NCc3ccccc3)[nH]c2c1 | 36.1% | –
84 | COc1ccc(-c2c(-c3ccc(OC)c(C)c3O)n[nH]c2C)cc1 | inactive: -74.8% | –
85 | C#CCOC(=O)c1ccccc1C(=O)n1nnc2ccccc21 | inactive: -30.6% | –
86 | O=C(Nc1ncc2c(n1)CC(c1cccc(Cl)c1)CC2=O)c1ccco1 (centres undefined) | inactive: -30.8% | –
87 | CN1c2ccccc2C(C)(C)C12C=Cc1cc(O)ccc1O2 (centres undefined) | inactive: 4.25% | –
88 | Cc1ccc(CNc2nc3ccccc3s2)s1 | 22.8% | –
89 | O=C(Nc1ncccc1O)c1cc2ccccc2o1 | 66.4% | –
90 | Cc1ccc(S(=O)(=O)N(CC(=O)Nc2cccnc2)c2cccc(Br)c2)cc1 | inactive: -34.1% | –
91 | Cc1nc(NC(=O)c2csc3ccccc23)sc1C | 31.7% | –
92 | O=C(CN1C(=O)NC2(CCCCC2)C1=O)Nc1ccc2c(c1)OCCCO2 | 50.6% | –

Some of these compounds in order of molar mass, descending.
Row | SMILES | activity change, positive = activation | Potency
85 | C#CCOC(=O)c1ccccc1C(=O)n1nnc2ccccc21 | inactive: -30.6% | –
74 | CCOC(=O)c1sc2nc(-c3ccccc3)ccc2c1N | 81.5% | –
87 | CN1c2ccccc2C(C)(C)C12C=Cc1cc(O)ccc1O2 (centres undefined) | inactive: 4.25% | –
89 | O=C(Nc1ncccc1O)c1cc2ccccc2o1 | 66.4% | –
80 | Cc1ccc(-c2nc3n(n2)Cc2ccccc2-3)cc1 | 40.7% | –

Remaining list, next part

Row | SMILES | activity change, positive = activation | Potency
93 | Cc1nc(SCC(=O)Nn2c(-c3ccccc3)nc3ccccc3c2=O)n[nH]1 | 34.7% | –
94 | CCOc1ccc(-c2cc(C(=O)NCCCn3ccnc3)c3cc(Br)ccc3n2)cc1 | inactive: -33.3% | –
95 | CCc1ccc(-c2nc(CN3CCC(C(=O)NCCN(CC)c4ccccc4)CC3)c(C)o2)cc1 | inactive: -56% | –
96 | O=C(/C=C/Nc1ccccc1)c1ccccc1 | 39.2% | –
97 | COc1cc(NC(=O)N2c3ccccc3Sc3ccccc32)c(C(=O)O)cc1OC | inactive: -40.3% | –
98 | Cc1cc(C)cc(CC(Cc2nc3ccccc3[nH]2)c2nc3ccccc3[nH]2)c1 (centres undefined) | inactive: -4.15% | –
99 | COc1ccccc1OCC(=O)Nc1ccccn1 | 12.7% | –
100 | Fc1cccc(NCc2cn3ccccc3n2)c1 | -14.3% | –
101 | Cc1ccc(O)c(-c2cc(C(=O)Nc3ccc(S(=O)(=O)N4CC(C)OC(C)C4)cc3)[nH]n2)c1 (centres undefined) | inactive: -7.26% | –
102 | CC(C)(C)c1ccc(/C=C/C(=O)Nc2nncs2)cc1 | 35.2% | –
103 | CC(C)c1ccc2oc(-c3cc(N)ccc3O)nc2c1 | 50.2% | –
104 | CC1=NN(C(N)=S)C(=O)C1N=Nc1ccc(F)cc1 (centres undefined) | – | active: 25.1 µM
105 | O=C(Cc1sc(Nc2ccccc2)nc1-c1ccccc1)NCc1ccccc1 | – | active: 39.8 µM
106 | Clc1ccc(-c2nnc(N3CCCC3)nn2)cc1 | 44.9% | –
107 | Oc1ccccc1-c1cc(-c2ccccc2)no1 | 43.8% | –
108 | O=C1c2ccccc2C(=O)C1c1ccnc2ccccc12 | 76.3% | –
109 | [O-][N+]1=c2ccc(Nc3ccccc3)cc2=NC12CCCCC2 | inactive: -33.7% | –
110 | CN(C)c1ccc(C=Nc2ccc(N(C)C)cc2)cc1 | – | active: 39.8 µM
111 | O=C(/C=C/c1ccc(NC(=O)c2ccccc2-c2ccccc2C(=O)O)cc1)c1ccccc1 | inactive: -51.5% | –
112 | O=C(O)CCC(=O)Nc1ccc(-n2ccc(C(F)(F)F)n2)cc1 | 20.8% | –
113 | Cc1cnc(NC(=O)c2cc3c(s2)CCCC3)s1 | 24.6% | –
114 | Cc1ccc2nc(-c3ccc(NC(=O)COC(=O)c4ccc(Br)o4)cc3)sc2c1 | 134% | –
